{"source": "patent US20190262453A1", "about": "“DESIGN AND COMPOSITION OF CELL-STABILIZED PHARMACEUTICAL FORMULATIONS” (THE REGENTS OF THE UNIVERSITY OF MICHIGAN, priority 2016, published 2019)", "origin": "cited, not measured here", "settings": "in vivo; cited from earlier work"}
{"smiles": "CN1CC[C@]23c4c5ccc(O)c4O[C@H]2[C@@H](O)C=C[C@H]3[C@H]1C5", "note": "[Morphine]", "values": [{"measurement": "Vd", "result": 3.3, "unit": "L/kg"}]}
